Experimental data reported in patent publication EP1075277B2, “METHODS FOR DETECTING AND INHIBITING ANGIOGENESIS” (The Regents of the University of California, priority 1998, dated 2012).
Part of at least one peptide drawing is inferred or uncertain, most often the ends. Where a SMILES comes first, the peptide text is derived from it. Bridges are numbered along the chain shown (N, C = ends).

Legend:
[1] = test system: HT29 colon carcinoma cells lacking α5β1 expression; experiment: Chick CAM tumor assay, HT29; assay type: in vivo; conditions: antibody 25 µg topically
Protocol: The chick CAM tumor assay was performed by placing ten million tumor cells on the surface of a CAM, and culturing the cells for one week. The resulting tumors were excised and cut into 50 mg fragments. […] Forty-eight hours later, CAM's were excised from the egg and the number of blood vessels entering the tumors were counted (as vessel branch points) .
Data was presented as mean blood vessel number per treatment group (+/- standard error of measurement). Each treatment group incorporated at least ten tumors per experiment. Representative tumors were photographed at 10X magnification. Tumors were excised from the egg and tumor weights were determined for each tumor. Data was presented as mean tumor weight per treatment group (+/- standard error of measurement). Statistical analyses were performed using Student's t-test.
HT29 colon carcinoma cells lacking α5β1 expression were grown on the CAM's of 10-day old embryos. These tumor cells secrete several angiogenic growth factors, including VEGF, TGFα, TGFβ, TNFα, and IL-8 (Anzano et al., Cancer Res. 49:2898-2904 (1989); Varner et. al., supra, 1995; Ellis et al., J. Biol. Chem. 273:1052-1057 (1998)). Integrin α5β1 negative tumor cells were used to distinguish the potential anti-tumor effects from anti-vasculature effects of integrin α5β1 antagonists.

[2] = test system: HUVEC's; experiment: Cell migration assay (transwell); assay type: cell-based, human; conditions: 4 hr at 37°C
[3] = test system: α5β1 HT29 colon carcinoma cells, CEF's, and HUVEC's; experiment: Cell adhesion assay on vitronectin; assay type: cell-based; conditions: 1 µg/ml vitronectin coat
Text: (§1) HT29 integrin α5β1 cells, integrin α5β1 colon carcinoma cells (Varner et al., Mol. Biol. Cell 6:725-740 (1995)), and chick embryo fibroblasts (CEF's) were maintained in DMEM high glucose supplemented with 10% fetal bovine serum (FBS) and gentamycin. Human umbilical vein endothelial cells (HWEC's) were maintained in M199 medium containing sodium bicarbonate, HEPES, heparin, endothelial cell growth supplement, 20% FBS and gentamycin. Culture media and reagents were from Irvine Scientific (Irvine, CA).
(§2) The wells of 48 well culture dishes (Costar, Inc.) were coated with 1 µg/ml vitronectin, 2 µg/ml fibronectin (chick embryo fibroblasts and HUVEC's) or 10 µg/ml fibronectin (HT29-α5^+ cells) for 1 hr at 37°C, then blocked with 2% heat denatured BSA in PBS for 1 hr. […]
(§3) Cells were allowed to adhere to dishes for 20 min at 37°C. […] Crystal violet was extracted by incubation for 15 min in 10% acetic acid and absorbance at 562 nm determined as an indicator of number of cells bound. […]

[4] = test system: blood vessel branch points in chorioallantoic membranes (CAM's); experiment: In ovo chick chorioallantoic membrane (CAM) angiogenesis assay; assay type: in vivo
Text: Ten day old embryonated chicken eggs (McIntyre Poultry; Ramona CA) were candled to illuminate blood vessels under the shell and an area with a minimum of small blood vessels is identified. The CAM was dropped away from the eggshell in this area by grinding a small hole in the mineralized shell and applying pressure to the underlying inner shell membrane. This procedure caused an air pocket to shift from the wide end of the egg to the identified area and forcing a circular region of the CAM approximately 2 cm in diameter to drop away from the shell. A window was cut in the egg shell and a cortisone acetate pre-treated filter disc 5 mm in diameter that had been saturated in 1 µg/ml bFGF, VEGF, TNFα, IL-8 (Genzyme, Inc.; Cambridge MA) or saline was placed on the CAM. The window in the shell was sealed with adhesive tape and the egg was incubated for four days.
Anti-fibronectin antibodies (25 µg in 25 µl) also were applied topically to the CAM.
Fibronectin, vitronectin and fibronectin fragments (59 pmol in a final volume of 25 µl) were applied to stimulated or unstimulated CAM's. Peptide or small molecule antagonists of α5β1 (at a final serum concentration of 0-25 µM) also were injected intravenously into the chick circulation 24 hr later. CAM's were harvested on the fourth day of stimulation. Blood vessel branch points in the 5 mm filter disk area were counted at 30 X magnification in a blinded fashion as a size-independent quantitative indicator of vascular sprouting in response to growth factors. Angiogenesis is characterized by the sprouting of new vessels in response to growth factors. Thus, counting of blood vessel branch points is a useful quantitative means of obtaining an angiogenic index (Brooks et al., In "Methods in Molecular Biology" (Humana Press 1999). At least ten embryos were used per treatment group. Each experiment was performed a minimum of three times.
Data was evaluated in terms of average number of blood vessel branch points per treatment group +/- standard error of measurement. Statistical analyses were performed using Student's t-test. Representative CAMS from each treatment group were photographed at 10X magnification. In some cases, CAM tissue excised from the egg was frozen in OCT (Baxter; McGraw Park IL) in liquid nitrogen, cut into 5 µm sections, air dried and processed for immunohistochemical analysis as described in Example I, except without fixation.

[5] = test system: integrin α5β1 positive cells, including α5β1 HT29 colon carcinoma cells, CEF's, and HUVEC's; experiment: Cell adhesion assay on fibronectin, results in words for the α5β1 positive cells together; assay type: cell-based; conditions: antibodies 50 µg/ml, cyclic peptides 10 µM, SJ749 0-10 µM
Text: as §1, §2, §3

With C[C@@H]1NC(=O)[C@H](Cc2c[nH]c3ccccc23)NC(=O)[C@H](C)NC(=O)[C@H]([C@@H](C)O)NC(=O)[C@H](CCC(=O)O)NC(=O)[C@H](CCCNC(=N)N)NC(=O)[C@H](CCCNC(=N)N)NC(=O)[C@@H](N)CSSC[C@@H](C(=O)O)NC1=O [CRRETAWAC] (H-CRRETAWAC-OH; disulfide 1-9) the “tumors smaller than control treated tumors” value ([1]; peptide or SJ749 25 µM final serum concentration intravenously) was 31%, the “effect on tumor size (in words)” value ([1]; peptide or small molecule 25 µM intravenously) was “induced tumor regression on the CAM” and the “effect on endothelial cell migration on fibronectin (in words)” value [2] was “interfered with endothelial cell migration on fibronectin”. For the same compound, the “effect on endothelial cell migration on other matrix proteins, including collagen (in words)” value [2] was “but not on other matrix proteins such as collagen”, the “effect on cell attachment to vitronectin (in words)” value [3] was “but not to vitronectin” and the “effect on VEGF-induced angiogenesis (in words)” value ([4]; VEGF stimulated CAM) was “failed to block VEGF angiogenesis”. The “inhibition of bFGF-induced angiogenesis” value ([4]; bFGF stimulated CAM, blood vessel branch points) was 90 +/- 6%, the “amount inhibiting angiogenesis by 50%” value ([4]; per 2 ml blood volume of chick embryo) was 120 picomoles and the “IC50, growth factor-induced angiogenesis” value ([4]; systemic administration, per 2 ml blood volume of the chick embryos) was about 120 pmol. The “effect on cell adhesion to fibronectin (in words)” value [5] was “significantly inhibited adhesion”.
